According to PubChem BioAssay AID540303 (National Center for Advancing Translational Sciences (NCATS), 2011):
In all, about 330,000 compounds went through this assay and about 1,000 (0.3%) were called active. Inconclusive results, whose numbers are uncertain, are shown with a selection of clear calls. The call rests on the fitted dose curve; in most records, active means well fitted inhibition curve with a large enough effect; inconclusive means small, poorly fitted or top-dose-only effect; inactive means no such curve, though single readings can be large or run the other way; tested in mouse RAW 264.7 cells. Potencies beside an inconclusive call are fits to weak or partial responses and may not hold up.

test: qHTS for Inhibitors of Cell Surface uPA Generation; conditions: cell surface uPA generation assay; series mostly up to 38.3 µM; activity change, negative = inhibition: at the top concentration; further: nearly all actives have a fitted effect of over 55% in size
In short: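 Using RAW 264.7 macrophages, the screen measures whether compounds keep cellular ATP up by preventing uPA-driven LF translocation. Treatment lasted 24 h at 37 C, with a final top concentration of 38.3 uM, and luminescence was the readout.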
On the % scale 0 is the no-effect control and ±100 the full control effect; potency means the concentration at half of the fitted maximal effect.

SMILES	Potency	activity change, negative = inhibition
COc1ccc(-c2cc(=O)c3ccccc3s2)cc1	inconclusive: 10 µM [inhibitor, partial curve, poor fit]	–
O=C(NNC(=O)c1cccs1)c1ccncc1	–	inactive: 3.15%
Cc1ccc2oc(C(Cl)(Cl)Cl)cc(=O)c2c1	inconclusive: 5.01 µM [inhibitor, full curve, poor fit]	–
COCCn1c(SCc2ccc(C(=O)OC)o2)nc2cc(Cl)ccc2c1=O	inconclusive: 2.24 µM [inhibitor, full curve, poor fit]	–
Cc1ccc(C)c(CN2C(=O)c3ccccc3S(=O)c3ccc(C(=O)NCCCN4CCCC4)cc32)c1 (centres undefined)	inconclusive: 12.6 µM [inhibitor, single point]	–
Cc1cc([N+](=O)[O-])nn1Cc1ccc(C(=O)N/N=C/c2ccc(O)cc2O)cc1	active: 7.08 µM	–
CCC(C)(C)NC(=O)Cn1c(-c2ccccc2)cc(C(C)=O)c1C	inconclusive: 5.62 µM [inhibitor, partial curve, poor fit]	–
Cn1c(=S)ccc2ccccc21	–	inactive: 5.02%
Cc1ccc(-c2ccc(C(=O)NCc3ccc(Cl)cc3)o2)c2ccccc12	inconclusive: 20 µM [inhibitor, single point]	–
O=C(Cc1ccc(Cl)c(Cl)c1)Nc1cccnc1	–	inactive: 1.14%
COc1ccc(-c2nnn(CC(=O)N(CC(=O)NCCC(C)C)c3ccccc3)n2)cc1OC	–	inactive: 3.25%
Cc1nc(-c2ccc(C(=O)Nc3cccc(Br)c3)cc2)cs1	inconclusive: 11.2 µM [inhibitor, partial curve, poor fit]	–
CC(C)C[C@H](NC(=O)c1[nH]cnc1C(=O)Nc1ccc(CNC(=O)OC(C)(C)C)cc1)C(=O)OC(C)(C)C	inconclusive: 12.6 µM [inhibitor, single point]	–
Cn1c(-c2ccccc2)c(C=O)c2ccccc21	inconclusive: 12.6 µM [inhibitor, single point]	–
COc1cc(C(c2c(C)n(C)n(-c3ccccc3)c2=O)c2c(C)n(C)n(-c3ccccc3)c2=O)cc(Br)c1O	inconclusive: 3.16 µM [inhibitor, single point]	–
COc1cc(NC(=O)c2cc(Cl)nnc2Cl)cc(OC)c1OC	inconclusive: 7.94 µM [inhibitor, single point]	–
COc1ccccc1NC(=O)C(=O)Nc1ccccn1	inconclusive: 6.31 µM [inhibitor, partial curve, poor fit]	–
COc1cccc(CNC(=O)C2CCC(CNc3nc(=S)[nH]c4ccccc34)CC2)c1 (centres undefined)	–	inactive: -6.12%
CCc1cc(-c2ccc3c(c2)COc2c4ccccc4nn2-3)on1	inconclusive: 10 µM [inhibitor, partial curve, poor fit]	–
Cc1ccc(-c2csc(NC(=O)c3c(C)noc3C)n2)cc1	inconclusive: 12.6 µM [inhibitor, single point]	–
CC1CCN(C(=S)NC(=O)c2cccs2)CC1	–	inactive: 0.232%
Cc1ccc(C(=O)N/C(=C\c2ccc(-c3ccc(Cl)cc3)o2)C(=O)NCCCN(C)C)cc1	–	inactive: 22.8%
O=c1cc(-c2ccccc2)oc2ccc(Cl)cc12	–	inactive: 7.18%

Taken from the results shown (three entries):
SMILES	Potency	activity change, negative = inhibition
COc1ccc(-c2cc(=O)c3ccccc3s2)cc1	inconclusive: 10 µM [inhibitor, partial curve, poor fit]	–
O=C(NNC(=O)c1cccs1)c1ccncc1	–	inactive: 3.15%
Cc1ccc2oc(C(Cl)(Cl)Cl)cc(=O)c2c1	inconclusive: 5.01 µM [inhibitor, full curve, poor fit]	–

Following part

SMILES	Potency	activity change, negative = inhibition
Cc1nnsc1C(=O)NC1CCCc2c1cnn2-c1ccc(C(C)(C)C)cc1 (centres undefined)	inconclusive: 12.6 µM [inhibitor, partial curve, poor fit]	–
C=CCOc1ccc(C(c2c(C(=O)O)[nH]c3ccccc23)c2c(C(=O)O)[nH]c3ccccc23)cc1	–	inactive: -0.175%
CN(C(=O)c1ccc(Oc2ccc([N+](=O)[O-])cc2)cc1)C1CCCCC1	–	inactive: 2.24%
Cc1ccc(Nc2nnc(SCc3cc(=O)n4cc(C)ccc4n3)s2)cc1	–	inactive: -0.765%
CCC(C)C(=O)Nc1nc(C)c(-c2csc(Nc3cc(Cl)ccc3OC)n2)s1 (centres undefined)	inconclusive: 7.08 µM [inhibitor, partial curve]	–
O=S(=O)(c1ccc(F)cc1)c1snnc1-c1ccccc1	–	inactive: -13.5%
CCN(C(=O)CC(C)C)c1nnc(Cn2nnc3ccccc32)s1	–	inactive: 2.02%
COc1ccccc1NC(=O)C(=O)c1cn(CC(=O)N2CCOCC2)c2ccccc12	–	inactive: -19.4%
CCN(CC)C(=O)CSc1ncnc2c(-c3cccs3)nsc12	–	inactive: -0.0387%
O=C1CSC(c2ccccc2)N1CCc1ccccc1 (centres undefined)	inconclusive: 31.6 µM [inhibitor, partial curve, poor fit]	–
Clc1ccc(-n2cnc3c(Cl)ncnc32)cc1Cl	–	inactive: 1.4%
O=C(NNC(=O)c1ccccc1Cl)c1ccc2c(c1)OCCO2	inconclusive: 11.2 µM [inhibitor, partial curve, poor fit]	–
CC1CCCCN1S(=O)(=O)c1cnc(Cl)c(Br)c1 (centres undefined)	inconclusive: 7.08 µM [inhibitor, partial curve]	–
CC(C)n1nc(C(=O)OCC(=O)NCCc2ccc(S(N)(=O)=O)cc2)c2ccccc2c1=O	inconclusive: 0.891 µM [inhibitor, full curve, poor fit]	–
C=CC[n+]1c(/C=C2\C=Cc3cc(C)ccc3N2CC)ccc2ccccc21	active: 8.91 µM	–
C=C1[C@@H](O)[C@@H]2O[C@]3(CC[C@H](/C=C/[C@@H](C)[C@@H]4CC(C)=CC5(O[C@H](C[C@@](C)(O)C(=O)OC)CC[C@H]5O)O4)O3)CC[C@H]2O[C@@H]1[C@@H](O)C[C@H](C)[C@H]1OC2(CCCCO2)CC[C@H]1C (some centres undefined)	inconclusive: 28.2 µM [inhibitor, single point]	–
COc1ccccc1CNc1cc(C)ccn1	–	inactive: -4.85%
Cc1ccccc1OCCSc1nc2ccccc2n1CCC(=O)O	inconclusive: 22.4 µM [inhibitor, partial curve, poor fit]	–
COc1ccc(F)cc1C1=CC(=O)C[C@H](c2ccc3c(c2)OCO3)C1	inconclusive: 5.62 µM [inhibitor, partial curve, poor fit]	–
COc1cccc(-c2nnc(NC(=O)c3ccccc3Br)o2)c1	inconclusive: 11.2 µM [inhibitor, partial curve, poor fit]	–
O=C(NCc1ccc2c(c1)OCO2)c1cc([N+](=O)[O-])ccc1N1CCOCC1	active: 2.82 µM	–
CCc1ccccc1NC(=O)c1ccc(Cn2cc([N+](=O)[O-])cn2)cc1	–	inactive: 5.92%
COc1ccc(C#Cc2c(-c3ccsc3)oc3ccc(N4CCOCC4)cc23)cc1	inconclusive: 8.91 µM [inhibitor, partial curve, poor fit]	–

Rewritten as a markdown table: 3 of the compounds above.

| SMILES | Potency | activity change, negative = inhibition |
| --- | --- | --- |
| Cc1nnsc1C(=O)NC1CCCc2c1cnn2-c1ccc(C(C)(C)C)cc1 (centres undefined) | inconclusive: 12.6 µM [inhibitor, partial curve, poor fit] | – |
| C=CCOc1ccc(C(c2c(C(=O)O)[nH]c3ccccc23)c2c(C(=O)O)[nH]c3ccccc23)cc1 | – | inactive: -0.175% |
| O=S(=O)(c1ccc(F)cc1)c1snnc1-c1ccccc1 | – | inactive: -13.5% |

Further compounds

SMILES	Potency	activity change, negative = inhibition
CCC1CCC2(CC1)NC(=O)N(CC(=O)NCc1ccc(Cl)cc1)C2=O (centres undefined)	inconclusive: 12.6 µM [inhibitor, partial curve, poor fit]	–
O=C(CSc1nc(Nc2ccccc2)nc(N2CCOCC2)n1)Nc1cc(Cl)ccc1O	inconclusive: 31.6 µM [inhibitor, single point]	–
c1ccc(-n2nnnc2Sc2n[nH]c(-c3ccncc3)n2)cc1	–	inactive: -1.19%
O=C(CN1CCN(c2ccc(O)cc2)CC1)Nc1ccccc1C(=O)NCCc1ccccc1	inconclusive: 12.6 µM [inhibitor, partial curve, poor fit]	–
Cc1ccnc(NC(=O)c2ccc3c(c2)NC(=O)C(C)S3)c1 (centres undefined)	inconclusive: 8.91 µM [inhibitor, partial curve, poor fit]	–
C/C(=N/NC(=O)c1ccccn1)c1ccc(O)cc1	inconclusive: 10 µM [inhibitor, partial curve, poor fit]	–
COc1ccc(-c2cc(C(=O)NCCCn3ccnc3)no2)cc1	inconclusive: 10 µM [inhibitor, partial curve, poor fit]	–
CCN1CCN(CCCNC(=O)c2ccc3c(c2)NC(=O)/C(=C\c2cccc(C)c2)S3)CC1	inconclusive: 3.98 µM [inhibitor, partial curve, poor fit]	–
O=C(NCc1ccc2c(c1)OCO2)c1nc(S(=O)(=O)Cc2ccccc2F)ncc1Cl	inconclusive: 1 µM [inhibitor, partial curve, poor fit]	–
C[C@H]1CN([C@@H](C)CO)C(=O)Cc2cc(NC(=O)CCC(F)(F)F)ccc2O[C@H]1CN(C)Cc1ccc(-c2ccccc2)cc1	inconclusive: 10 µM [inhibitor, single point]	–
CN(C)CCCN(Cc1cc2cc3c(cc2[nH]c1=O)OCO3)C(=S)Nc1cccc(Cl)c1	–	inactive: -2.42%
Nc1c(Cl)ncnc1NCCc1ccc(O)cc1	–	inactive: -5.3%
CCn1c(SCC(=O)N/N=C(\C)c2ccco2)nnc1-c1ccccc1	inconclusive: 0.0141 µM [inhibitor, full curve, poor fit]	–
CC1=C/C(=N\NC(=S)Nc2cccnc2)CC(C)(C)C1	inconclusive: 11.2 µM [inhibitor, single point]	–
N=c1sccn1CC(=O)N1CCc2ccccc21	–	inactive: 2.26%
CC(C)CN1C(=O)C(=Nc2cccnc2)c2ccccc21	inconclusive: 25.1 µM [inhibitor, single point]	–
CCOc1ccc(CCNC(=O)COC(=O)CNS(=O)(=O)c2ccc(C)cc2)cc1OCC	inconclusive: 14.1 µM [inhibitor, partial curve, poor fit]	–
CCOc1ccc(-c2cnc3ccccc3n2)cc1	inconclusive: 3.16 µM [inhibitor, partial curve]	–
O=C(Nc1nccs1)C1Cc2ccccc2CN1S(=O)(=O)c1ccc(F)cc1 (centres undefined)	–	inactive: -3.76%
CCC(=O)Nc1cccc(-c2nnc(SCC(=O)NCc3ccco3)n2C)c1	–	inactive: 0.0632%
Cc1cccc(C(=O)OCC(=O)N2CCCCCC2)c1C	–	inactive: -2.75%
NN=C(c1cccc([N+](=O)[O-])c1)c1cccc([N+](=O)[O-])c1	–	inactive: -1.49%
CN(C)c1ccc(N=Nc2nc3ccccc3n2C)cc1	inconclusive: 11.2 µM [inhibitor, partial curve]	–
